# Some entries share one result that the patent states for a list of compounds. At least one compound was matched to its structure with a doubt left.
# System: HeLa cells
# Experiment: Colorimetric CCK-8 viability assay of HeLa cells
# Assay type: cell-based
# Conditions: 5 wt percent Pluronic F108 in DMEM
# Method: HeLa cells were treated with varying concentrations of [8]CPP and [12]CPP in the presence of 5 wt percent Pluronic F108 in DMEM, and their viability was measured using a colorimetric CCK-8 assay (purchased from Dojindo and performed following the assay instructions). Briefly, the cells were treated with the nanohoop compound and the tetrazolium salt WST-8 at each concentration for 2 hours at 37 degrees Celsius, and the optical density of the cells was subsequently measured at 450 nm. The viability of cells treated with the [12]CPP and [8]CPP compounds is illustrated in FIGS. 1 and 2, respectively.
# In this example, HeLa cells were treated with the disulfonated[8]CPP nanohoop Compound 1 at concentrations of 5 uM, 10 uM, 25 uM, 50 uM and 100 uM and their viability was measured using a standard colorimetric CCK-8 assay, as described above for Example 1. The percentage of living cells remaining after exposure to various concentrations of Compound 1 is illustrated in the graph shown in FIG. 3.
compound,measurement,setting,value
c1cc2ccc1=c1ccc(cc1)=c1ccc(cc1)=c1ccc(cc1)=c1ccc(cc1)=c1ccc(cc1)=c1ccc(cc1)=c1ccc=2cc1 [[8]CPP],reduction of cell viability,"[8]CPP at concentrations as high as 2 uM, 2 hours at 37 degrees Celsius (FIG. 2)",≤ 80%
c1cc2ccc1-c1ccc(cc1)-c1ccc(cc1)-c1ccc(cc1)-c1ccc(cc1)-c1ccc(cc1)-c1ccc(cc1)-c1ccc(cc1)-c1ccc(cc1)-c1ccc(cc1)-c1ccc(cc1)-c1ccc-2cc1 [[12]CPP],reduction of cell viability,"[12]CPP at concentrations as high as 1 uM, 2 hours at 37 degrees Celsius (FIG. 1)",≤ 80%

# — US11555820B2, “Nanohoop compounds for use in biotechnology and methods of making and using the same” (University of Oregon, priority 2017, dated 2023)
